No constants are given. Whether binding was seen depends on the method and setting. Binding seen in cells or lysates may run through a third protein. Some results given as binding are weak or reduced against the parent protein; the word gives no strength.
Molecular target: methyl-CpG-binding protein 2 (MeCP2) (human) (UniProt P51608)
Experiment: co-IP; HeLa cells, 48 h after transfection; lysis buffer 50 mM Tris-HCl pH 7.5, 150 mM NaCl, 10% glycerol, 0.5% NP-40; anti-FLAG M2 magnetic beads or anti-c-Myc affinity agarose, 4 °C, 4 h; western blot

Amino acid sequences for entries named in this document (tags omitted).
UniProt P51608: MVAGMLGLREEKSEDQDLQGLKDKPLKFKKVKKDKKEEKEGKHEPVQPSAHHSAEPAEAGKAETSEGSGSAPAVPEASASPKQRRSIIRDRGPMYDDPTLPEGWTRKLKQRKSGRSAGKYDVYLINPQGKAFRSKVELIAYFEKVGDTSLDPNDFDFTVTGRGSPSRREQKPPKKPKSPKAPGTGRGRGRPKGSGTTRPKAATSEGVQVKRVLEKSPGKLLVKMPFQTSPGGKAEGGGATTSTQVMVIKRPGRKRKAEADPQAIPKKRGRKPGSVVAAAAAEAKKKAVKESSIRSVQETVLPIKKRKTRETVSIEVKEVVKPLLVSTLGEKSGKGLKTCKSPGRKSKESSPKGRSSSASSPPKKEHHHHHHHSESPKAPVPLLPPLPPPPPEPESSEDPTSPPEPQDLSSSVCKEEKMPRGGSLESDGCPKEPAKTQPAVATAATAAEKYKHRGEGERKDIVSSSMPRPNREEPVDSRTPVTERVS
UniProt Q13619: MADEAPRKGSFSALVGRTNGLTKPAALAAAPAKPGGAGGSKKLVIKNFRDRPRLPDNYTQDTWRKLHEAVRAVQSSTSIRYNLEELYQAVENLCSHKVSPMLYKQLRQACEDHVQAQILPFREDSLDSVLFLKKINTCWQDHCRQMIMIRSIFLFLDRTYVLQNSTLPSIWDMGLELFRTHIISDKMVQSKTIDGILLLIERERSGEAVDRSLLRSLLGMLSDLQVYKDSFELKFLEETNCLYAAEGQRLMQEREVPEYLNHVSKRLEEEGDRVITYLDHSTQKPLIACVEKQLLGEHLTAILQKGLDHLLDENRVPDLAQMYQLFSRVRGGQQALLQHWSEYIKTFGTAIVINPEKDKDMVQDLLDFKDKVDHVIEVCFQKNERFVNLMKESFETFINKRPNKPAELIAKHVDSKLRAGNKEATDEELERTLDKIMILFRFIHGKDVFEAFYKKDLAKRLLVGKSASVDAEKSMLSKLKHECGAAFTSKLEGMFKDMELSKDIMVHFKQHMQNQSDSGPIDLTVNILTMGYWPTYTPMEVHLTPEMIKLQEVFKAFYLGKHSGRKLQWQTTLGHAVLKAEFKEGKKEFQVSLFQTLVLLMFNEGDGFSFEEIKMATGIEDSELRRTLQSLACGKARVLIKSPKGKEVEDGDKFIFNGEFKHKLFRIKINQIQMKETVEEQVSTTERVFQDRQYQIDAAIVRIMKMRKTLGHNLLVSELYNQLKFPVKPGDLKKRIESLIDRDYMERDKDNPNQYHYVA
UniProt Q16531: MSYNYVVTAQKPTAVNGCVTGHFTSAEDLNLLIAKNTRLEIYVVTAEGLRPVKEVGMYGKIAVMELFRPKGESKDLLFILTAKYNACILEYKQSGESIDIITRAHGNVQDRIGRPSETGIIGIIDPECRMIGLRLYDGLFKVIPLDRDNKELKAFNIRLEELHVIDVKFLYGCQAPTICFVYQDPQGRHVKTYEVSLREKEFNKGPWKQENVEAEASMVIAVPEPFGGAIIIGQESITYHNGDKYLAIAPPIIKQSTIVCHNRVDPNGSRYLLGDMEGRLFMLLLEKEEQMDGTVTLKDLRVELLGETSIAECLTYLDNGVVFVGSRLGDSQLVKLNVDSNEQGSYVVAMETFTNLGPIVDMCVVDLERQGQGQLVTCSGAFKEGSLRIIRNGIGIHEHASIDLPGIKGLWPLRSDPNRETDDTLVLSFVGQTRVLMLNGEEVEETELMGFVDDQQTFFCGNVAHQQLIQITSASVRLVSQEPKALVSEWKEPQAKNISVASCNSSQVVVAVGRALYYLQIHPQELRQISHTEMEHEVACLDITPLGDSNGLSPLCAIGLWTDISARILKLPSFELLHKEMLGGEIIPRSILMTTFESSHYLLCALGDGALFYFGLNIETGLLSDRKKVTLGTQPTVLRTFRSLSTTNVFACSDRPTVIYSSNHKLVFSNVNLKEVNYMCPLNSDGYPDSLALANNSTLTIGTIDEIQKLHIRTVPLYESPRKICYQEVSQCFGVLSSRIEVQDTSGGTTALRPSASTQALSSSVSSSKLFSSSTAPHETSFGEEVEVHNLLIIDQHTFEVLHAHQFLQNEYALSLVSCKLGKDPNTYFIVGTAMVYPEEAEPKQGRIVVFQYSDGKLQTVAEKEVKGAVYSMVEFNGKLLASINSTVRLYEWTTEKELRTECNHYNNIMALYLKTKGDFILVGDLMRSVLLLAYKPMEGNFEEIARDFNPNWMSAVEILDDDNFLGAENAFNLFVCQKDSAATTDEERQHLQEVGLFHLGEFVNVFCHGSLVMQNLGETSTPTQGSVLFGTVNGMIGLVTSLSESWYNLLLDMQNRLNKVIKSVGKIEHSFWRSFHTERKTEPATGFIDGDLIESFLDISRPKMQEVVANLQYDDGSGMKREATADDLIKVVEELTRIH

binding | Substance
binds | Cullin4A (CUL4A) (from UniProt Q13619 1-759)
binds | DNA damage-binding protein-1 (DDB1) (from UniProt Q16531 1-1140)

Reference: paper PMC10997554
